The values below come from publication PMC8096277.

Amino acid sequences for entries named in this document (tags omitted). Residues count along the entry.
UniProt Q9Y2Z2, residues 26-717: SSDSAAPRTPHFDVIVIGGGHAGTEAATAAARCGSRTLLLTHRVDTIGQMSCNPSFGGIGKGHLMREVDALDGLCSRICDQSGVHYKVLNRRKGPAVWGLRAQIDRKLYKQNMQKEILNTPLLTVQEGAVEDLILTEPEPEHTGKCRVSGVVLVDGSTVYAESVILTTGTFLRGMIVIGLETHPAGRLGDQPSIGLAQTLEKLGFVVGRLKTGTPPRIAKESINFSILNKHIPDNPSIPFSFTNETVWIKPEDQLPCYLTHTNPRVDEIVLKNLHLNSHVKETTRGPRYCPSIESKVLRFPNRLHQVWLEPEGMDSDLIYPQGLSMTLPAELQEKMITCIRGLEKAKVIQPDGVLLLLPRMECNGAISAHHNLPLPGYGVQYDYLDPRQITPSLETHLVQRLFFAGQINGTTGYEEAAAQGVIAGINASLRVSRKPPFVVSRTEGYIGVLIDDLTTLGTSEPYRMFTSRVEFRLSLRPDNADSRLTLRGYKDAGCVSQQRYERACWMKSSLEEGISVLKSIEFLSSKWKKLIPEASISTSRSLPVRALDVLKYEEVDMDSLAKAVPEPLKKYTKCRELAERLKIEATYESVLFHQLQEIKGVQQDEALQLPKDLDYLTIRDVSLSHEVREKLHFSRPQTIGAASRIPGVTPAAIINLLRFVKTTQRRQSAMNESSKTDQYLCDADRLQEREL
UniProt Q15388: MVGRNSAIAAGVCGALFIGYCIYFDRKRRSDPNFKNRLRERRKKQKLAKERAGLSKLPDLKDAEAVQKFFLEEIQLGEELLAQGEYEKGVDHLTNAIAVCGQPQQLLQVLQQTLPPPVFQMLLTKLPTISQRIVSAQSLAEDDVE

For assay [1], the target named is human FLAG-tagged MTO1 (human) (UniProt Q9Y2Z2). Nature of the assay: co-IP; HEK 293T cells transiently expressing MTO1-FLAG; lysis buffer 1% NP40, 50 mM Tris-HCl pH 7.6, 150 mM NaCl; supernatants incubated overnight at 4°C with beads cross-linked to anti-FLAG or anti-MTPAP antibody; Western blot with anti-FLAG, anti-MTPAP and TOM20 antibodies. On the technique in general: In western blotting, separated proteins are transferred to a membrane and probed.

Assay [2] has as its target T1, MTPAP, mitochondrial poly(A) polymerase (human (endogenous in HEK 293T)) (UniProt Q9NVV4).
T1 sequence: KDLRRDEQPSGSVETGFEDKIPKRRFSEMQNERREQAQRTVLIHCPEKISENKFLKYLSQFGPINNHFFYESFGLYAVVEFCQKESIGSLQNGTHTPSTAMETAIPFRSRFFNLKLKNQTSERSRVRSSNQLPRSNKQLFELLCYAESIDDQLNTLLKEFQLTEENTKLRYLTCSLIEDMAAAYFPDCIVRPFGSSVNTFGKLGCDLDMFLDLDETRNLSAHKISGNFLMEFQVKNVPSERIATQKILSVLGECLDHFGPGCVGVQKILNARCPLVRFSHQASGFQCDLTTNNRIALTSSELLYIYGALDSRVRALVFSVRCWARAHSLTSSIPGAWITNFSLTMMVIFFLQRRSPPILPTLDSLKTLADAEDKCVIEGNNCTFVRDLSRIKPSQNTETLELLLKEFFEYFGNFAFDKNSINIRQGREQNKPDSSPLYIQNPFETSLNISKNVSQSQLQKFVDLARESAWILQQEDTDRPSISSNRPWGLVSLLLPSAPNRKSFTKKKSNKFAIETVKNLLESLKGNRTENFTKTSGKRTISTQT
Described as above.

Results are given in words; binding and its absence hold for the method and conditions named. In cells and extracts the contact can be indirect. Some binding calls cover weakened binding; strength is not graded here.

As to TOM20 (from UniProt Q15388 1-145), in assay [1], the binding result is recorded as “no binding”.
On to “human FLAG-tagged MTO1 (from UniProt Q9Y2Z2 26-717)”, for which, in assay [2], the binding result is reported as “binds”.

B1: MTPAP, mitochondrial poly(A) polymerase (protein, UniProt Q9NVV4 38-582)
chain: KDLRRDEQPSGSVETGFEDKIPKRRFSEMQNERREQAQRTVLIHCPEKISENKFLKYLSQFGPINNHFFYESFGLYAVVEFCQKESIGSLQNGTHTPSTAMETAIPFRSRFFNLKLKNQTSERSRVRSSNQLPRSNKQLFELLCYAESIDDQLNTLLKEFQLTEENTKLRYLTCSLIEDMAAAYFPDCIVRPFGSSVNTFGKLGCDLDMFLDLDETRNLSAHKISGNFLMEFQVKNVPSERIATQKILSVLGECLDHFGPGCVGVQKILNARCPLVRFSHQASGFQCDLTTNNRIALTSSELLYIYGALDSRVRALVFSVRCWARAHSLTSSIPGAWITNFSLTMMVIFFLQRRSPPILPTLDSLKTLADAEDKCVIEGNNCTFVRDLSRIKPSQNTETLELLLKEFFEYFGNFAFDKNSINIRQGREQNKPDSSPLYIQNPFETSLNISKNVSQSQLQKFVDLARESAWILQQEDTDRPSISSNRPWGLVSLLLPSAPNRKSFTKKKSNKFAIETVKNLLESLKGNRTENFTKTSGKRTISTQT
Consider B1, for which the binding result in assay [1] is given as “binds”.
